Data source: PubChem BioAssay AID504786 (Drosophila RNAi Screening Center, 2011)
The screen tested about 21,000 reagents; this is an unselected part of those with a known target gene and a result. 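Primary screen; positive scores mean lost reporter signal, so the sign may be inverted from the usual convention.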 A plus sign joins genes that one reagent is predicted to hit. Further read-outs or replicates are left out here. Reagent sequences are not shown.

Purpose: 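Fly genes required for HIF-dependent transcription when hypoxia is mimicked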 (primary screen)
Cells: Drosophila S2 cells with a stable HIF luciferase reporter
Reagents: long dsRNA against Drosophila genes, about 0.2 µg dsRNA per well of a 384-well plate
Time to read-out: three days of knock-down, then 20 h of DFO before reading
Challenge: desferrioxamine (DFO) at 100 µM, an iron chelator that mimics hypoxia, for 20 h
Measured: 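Firefly luciferase driven by the mouse ldh-a hypoxia-response element, measured after 20 h of 100 µM DFO; z-scores per plate, higher means more signal lost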
Reading the numbers: z-score: higher = stronger loss of HIF reporter signal

no.	Target gene	dsRNA	z-score, replicate 1	z-score, replicate 2
1	saturn	DRSC09303	-0.1	-0.1
2	RpS13 (Ribosomal protein S13)	DRSC03419	7.8	5.4
3	Pld (Phospholipase D)	DRSC04854	-0.3	-0.4
4	CR33319 (pseudo)	DRSC01826	-0.5	-0.4
5	CG10681	DRSC09777	-0.4	-0.3
6	Dop1R2 (Dopamine 1-like receptor 2)	DRSC13958	-0.2	0
7	Dop1R2 (Dopamine 1-like receptor 2)	DRSC15379	-0.1	-0.2
8	Sod1 (Superoxide dismutase 1)	DRSC11286	-0.3	-0.4
9	Rgk1 (retired record)	DRSC07343	-0.2	-0.5
10	Rgk1 (retired record)	DRSC07344	3.5	2.7
11	GCS2alpha (Glucosidase 2 alpha subunit)	DRSC21036	-0.5	-0.7
12	CG2889	DRSC18236	-0.3	-0.3
13	CG18682 (retired record)	DRSC15373	-0.4	0.4
14	CG18682 (retired record)	DRSC15374	-0.3	-0.3
15	CG6052	DRSC10574	-0.1	-0.1
16	Fip1 (Factor interacting with poly(A) polymerase 1)	DRSC12147	1.5	1.3
17	BomT2 (Bomanin Tailed 2)	DRSC06631	-0.4	-0.8
18	Kaz-m1 (Kazal-type protease inhibitor m1)	DRSC16990	-0.4	0.1
19	sle (slender lobes)	DRSC14557	-0.3	-0.5
20	CG12398	DRSC19454	-0.2	-0.2
21	CG4080	DRSC10398	-0.2	-0.6
22	EMRE (Essential MCU regulator)	DRSC06686	-0.3	-0.5
23	betaNACtes3 (Nascent-associated complex beta-subunit-like, testis 3)	DRSC20183	-0.5	0
24	Drep2 (DNA fragmentation factor-related protein 2)	DRSC07528	-0.3	-0.2
25	scpr-A + scpr-C + scpr-B	DRSC15715	-0.2	0.1
26	nAChRalpha6 (nicotinic Acetylcholine Receptor alpha6)	DRSC01096	-0.2	-0.4
27	nAChRalpha6 (nicotinic Acetylcholine Receptor alpha6)	DRSC02738	-0.4	-0.7
28	aub (aubergine)	DRSC03486	-0.4	-0.2
29	Jhbp2 (Juvenile hormone binding protein 2)	DRSC12292	-0.1	-0.1
30	CG6333	DRSC10626	-0.2	-0.2
31	CG6654	DRSC16084	-0.2	0
32	bw (brown)	DRSC04005	-0.1	-0.2
33	bw (brown)	DRSC04677	-0.2	-0.6
34	Klp54D (Kinesin-like protein at 54D)	DRSC07450	0	0
35	Arp5 (Actin-related protein 5)	DRSC16350	-0.3	-0.5
36	Orc2 (Origin recognition complex subunit 2)	DRSC16776	-0.3	-0.4
37	CG31360	DRSC13255	-0.5	-0.3
38	Hr39 (Hormone receptor-like in 39)	DRSC03346	-0.2	-0.8
39	CG15141	DRSC02441	0	-0.2
40	CG15141	DRSC02442	0.1	0
41	bero (belly roll)	DRSC03211	-0.4	-0.3
42	l(3)mbt (lethal (3) malignant brain tumor)	DRSC16983	-0.4	0.3
43	GILT1 (Gamma-interferon-inducible lysosomal thiol reductase 1)	DRSC16565	-0.3	-0.2
44	CG42582 (retired record)	DRSC20675	0.5	0.7
45	Cam (Calmodulin)	DRSC07353	-0.4	-0.9
46	Cam (Calmodulin)	DRSC07354	-0.6	-0.6
47	jv (javelin)	DRSC08831	-0.4	-0.2
48	jv (javelin)	DRSC08832	-0.3	-0.3
49	CG2663	DRSC12314	-0.4	-0.1
50	CG12994	DRSC19192	-0.6	-0.3
51	CG12994	DRSC19514	0.1	0.4
52	Uvrag (UV-resistance associated gene)	DRSC02932	-0.2	-0.3
53	SmD2 (Small ribonucleoprotein particle protein SmD2)	DRSC12536	3.2	2.8
54	dpr5 (defective proboscis extension response 5)	DRSC15766	-0.4	0
55	Drip	DRSC07405	-0.3	-0.3
56	CG34289	DRSC13625	-0.2	-0.1
57	Pgant7 (Polypeptide N-Acetylgalactosaminyltransferase 7)	DRSC19991	-0.1	-0.3
58	CG5984	DRSC15930	-0.2	-0.7
59	CG14259	DRSC14754	-0.4	-0.3
60	CG8661	DRSC20115	0.1	1.3
61	cype (cyclope)	DRSC02356	0.7	1.4
62	Ugt36F1 (UDP-glycosyltransferase family 36 member F1)	DRSC02601	-0.3	-0.3
63	CG13226	DRSC06346	-0.1	-0.2
64	Rdl (Resistant to dieldrin)	DRSC11264	0	0
65	CG2310	DRSC15438	-0.2	0.1
66	CG6220	DRSC06969	-0.3	-0.4
67	CG32452	DRSC11581	-0.1	-0.1
68	CG14632 (retired record)	DRSC17942	-0.3	-0.7
69	CG11349	DRSC08179	-0.2	-0.3
70	CG7029	DRSC16177	-0.2	0.3
71	Or9a (Odorant receptor 9a)	DRSC18692	-0.1	-0.5
72	aurB (aurora B)	DRSC03548	-0.3	-0.4
73	CG33552	DRSC01551	0.1	0.8
74	pyd (polychaetoid)	DRSC12712	-0.5	-0.4
75	pyd (polychaetoid)	DRSC14387	-0.4	-0.6
76	pyd (polychaetoid)	DRSC14445	-0.2	1
77	pyd (polychaetoid)	DRSC14509	0	-0.1
78	pyd (polychaetoid)	DRSC16547	-0.4	-1
79	pyd (polychaetoid)	DRSC16548	-0.1	-0.1
80	pyd (polychaetoid)	DRSC17041	-0.3	-0.7
81	CG32681	DRSC17646	-0.1	-0.2
82	OS9 (Olfactory-specific 9)	DRSC02700	0.2	0.1
83	CG3635	DRSC03729	-0.1	-0.3
84	CG11470	DRSC14313	-0.3	-0.2
85	Ntmt (N-terminal methyltransferase)	DRSC06624	-0.2	-0.2
86	CG17985	DRSC06702	-0.3	-0.3
87	vnc + CG42455	DRSC09867	1.7	2.4
88	Ir21a (Ionotropic receptor 21a)	DRSC00528	-0.2	-0.3
89	Ppi1 (Protein phosphatase 1c interacting protein 1)	DRSC15421	-0.2	-0.1
90	CG14312	DRSC14791	-0.4	-0.2
91	lft (lowfat)	DRSC02236	0	-0.1
92	CG33128	DRSC00294	-0.3	-0.6
93	Or83c (Odorant receptor 83c)	DRSC12359	-0.2	-0.6
94	CG14654 (retired record)	DRSC12240	-0.5	-0.6
95	BigH1 (Histone H1 variant BigH1)	DRSC15491	-0.3	-0.1
96	CG34398	DRSC01052	-0.2	0.2
97	CG34398	DRSC02510	0.9	1.4
98	CG34398	DRSC02511	-0.1	0.3
99	CG34398	DRSC03228	0	0.1
100	CG7213	DRSC10787	-0.1	-0.1
101	Or98a (Odorant receptor 98a)	DRSC16774	-0.3	-0.7
102	Cpr49Aa (Cuticular protein 49Aa)	DRSC07197	-0.3	0
103	deltaCOP (Coat Protein (coatomer) delta)	DRSC18760	-0.3	0.7
104	CG17163	DRSC20901	0.3	0.2
105	CG32631	DRSC19768	-0.1	-0.5
106	CG14109	DRSC10112	-0.3	-0.9

Ordered by “z-score, replicate 2” (lowest first): 14 of the entries above.
Target gene	dsRNA	z-score, replicate 1	z-score, replicate 2
Cam (Calmodulin)	DRSC07353	-0.4	-0.9
Hr39 (Hormone receptor-like in 39)	DRSC03346	-0.2	-0.8
bw (brown)	DRSC04677	-0.2	-0.6
Cam (Calmodulin)	DRSC07354	-0.6	-0.6
Arp5 (Actin-related protein 5)	DRSC16350	-0.3	-0.5
Orc2 (Origin recognition complex subunit 2)	DRSC16776	-0.3	-0.4
CG31360	DRSC13255	-0.5	-0.3
bero (belly roll)	DRSC03211	-0.4	-0.3
CG15141	DRSC02441	0	-0.2
GILT1 (Gamma-interferon-inducible lysosomal thiol reductase 1)	DRSC16565	-0.3	-0.2
Klp54D (Kinesin-like protein at 54D)	DRSC07450	0	0
CG15141	DRSC02442	0.1	0
l(3)mbt (lethal (3) malignant brain tumor)	DRSC16983	-0.4	0.3
CG42582 (retired record)	DRSC20675	0.5	0.7
